Paper PMC3115958
No constants are given. Whether binding was seen depends on the method and setting. Binding seen in cells or lysates may run through a third protein. Some entries that bind do so weakly or less than the wild type.

Sequences of proteins named here, by UniProt entry; tags and fusion partners are left off. A change or cut given only in a name is not applied to a line headed by its entry. A line that says so, or that is headed by a name, gives the form on record, which may keep a tag or linker. Residues count along the entry.
UniProt P28799: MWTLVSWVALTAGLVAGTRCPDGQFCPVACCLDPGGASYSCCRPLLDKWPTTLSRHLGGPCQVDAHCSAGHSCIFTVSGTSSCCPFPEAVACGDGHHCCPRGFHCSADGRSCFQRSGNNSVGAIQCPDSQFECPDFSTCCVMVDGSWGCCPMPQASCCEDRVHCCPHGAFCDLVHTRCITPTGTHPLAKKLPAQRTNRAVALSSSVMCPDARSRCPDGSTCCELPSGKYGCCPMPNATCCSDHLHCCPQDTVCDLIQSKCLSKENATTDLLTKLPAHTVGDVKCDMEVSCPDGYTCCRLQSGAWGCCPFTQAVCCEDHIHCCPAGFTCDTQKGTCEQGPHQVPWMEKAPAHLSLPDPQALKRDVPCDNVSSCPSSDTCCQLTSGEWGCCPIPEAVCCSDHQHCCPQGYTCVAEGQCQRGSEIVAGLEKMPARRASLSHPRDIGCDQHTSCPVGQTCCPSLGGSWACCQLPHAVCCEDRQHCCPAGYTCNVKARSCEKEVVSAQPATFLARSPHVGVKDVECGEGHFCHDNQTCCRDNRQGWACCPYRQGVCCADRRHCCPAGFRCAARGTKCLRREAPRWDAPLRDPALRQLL
Flag tagged progranulin: residues 18-593 of P28799
Flag tagged progranulin lacking the last 3 residues (QLL): residues 18-590 of P28799
Flag tagged progranulin C100: residues 494-593 of P28799
UniProt Q6PHU5, residues 74-825: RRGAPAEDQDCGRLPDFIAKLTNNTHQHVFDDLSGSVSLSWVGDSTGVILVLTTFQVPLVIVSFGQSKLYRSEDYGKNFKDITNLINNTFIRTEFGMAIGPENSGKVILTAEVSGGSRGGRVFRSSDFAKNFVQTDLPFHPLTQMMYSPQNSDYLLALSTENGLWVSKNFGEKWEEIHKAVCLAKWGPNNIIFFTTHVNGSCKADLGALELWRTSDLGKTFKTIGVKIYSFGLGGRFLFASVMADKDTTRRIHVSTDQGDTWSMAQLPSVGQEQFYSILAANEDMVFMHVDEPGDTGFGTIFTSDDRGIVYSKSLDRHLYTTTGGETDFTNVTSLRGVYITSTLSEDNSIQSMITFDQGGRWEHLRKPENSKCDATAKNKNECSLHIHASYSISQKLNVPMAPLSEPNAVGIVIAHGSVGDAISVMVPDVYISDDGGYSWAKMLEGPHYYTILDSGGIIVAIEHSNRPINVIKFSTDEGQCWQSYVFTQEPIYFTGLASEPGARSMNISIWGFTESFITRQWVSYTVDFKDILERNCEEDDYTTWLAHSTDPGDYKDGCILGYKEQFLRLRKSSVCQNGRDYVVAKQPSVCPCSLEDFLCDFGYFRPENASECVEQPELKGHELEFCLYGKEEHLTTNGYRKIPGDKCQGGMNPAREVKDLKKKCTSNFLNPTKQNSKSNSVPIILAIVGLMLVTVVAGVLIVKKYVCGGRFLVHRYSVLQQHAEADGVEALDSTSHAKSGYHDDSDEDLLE

What was measured:
Test in all cases: co-IP; anti-Flag beads bound to Flag-PGRN forms from the conditioned media of transfected HEK293T cells, incubated with cell lysates (transfected HEK293T; NSC-34) for 4 hours at 4°C; 50 mM Tris pH 8.0, 150 mM NaCl, 1% Triton, 0.1% sodium deoxycholate; sortilin detected with anti-sortilin antibodies
[1] = molecular target: Flag tagged progranulin (human) (UniProt P28799)
[2] = molecular target: Flag tagged progranulin C100 (human) (UniProt P28799)
[3] = molecular target: Flag tagged progranulin lacking the last 3 residues (QLL) (human) (UniProt P28799)

With “sortilin in the cell lysates of NSC-34 (from UniProt Q6PHU5 74-825) (receptor)” the binding [1] was “binds”, the binding [2] was “binds” and the binding [3] was “no binding”.
